Target: T1, BumS (WT BumS-Myc-6XHis) (Campylobacter jejuni, UniProt Z9AJU0DEG1)
T1 construct: gene CJJ81176_1484; second to penultimate codon, C-terminal Myc-6XHis tag kept (pBAD/Myc-HisA, pNR251), expressed in E. coli TOP10; cytoplasmic, N-terminal PAS domain (about residues 1-120)
T1 sequence (Z9AJU0DEG1 2-403): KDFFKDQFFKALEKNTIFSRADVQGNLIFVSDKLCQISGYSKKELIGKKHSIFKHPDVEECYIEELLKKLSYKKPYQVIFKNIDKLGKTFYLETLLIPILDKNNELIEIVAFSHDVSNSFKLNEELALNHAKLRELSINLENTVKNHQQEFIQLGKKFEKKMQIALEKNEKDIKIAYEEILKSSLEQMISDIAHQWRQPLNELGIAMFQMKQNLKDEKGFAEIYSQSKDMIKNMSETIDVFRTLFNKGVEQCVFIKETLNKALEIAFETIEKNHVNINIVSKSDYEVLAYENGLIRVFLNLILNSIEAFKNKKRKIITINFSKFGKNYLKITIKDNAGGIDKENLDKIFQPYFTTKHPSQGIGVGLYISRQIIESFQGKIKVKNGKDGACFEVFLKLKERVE
Assay: CD thermal melt at […] nm
Assay type: binding
Details: […]; […] HEPES, […] NaSO4, […] glycerol; […]-95 °C

Compound: CC(C)CC(=O)O [isovalerate]
- Tm,app: isobutyrate and isovalerate had a net destabilizing effect on the thermostability of BumS

From article PMC11796366, “The Campylobacter jejuni BumS sensor phosphatase detects the branched short-chain fatty acids isobutyrate and isovalerate as direct cues for signal transduction” (mBio, 2024)
